# Experimental data reported in PubChem BioAssay AID493014 (National Center for Advancing Translational Sciences (NCATS), 2011).
# The list shows a part of the results. The main result of the screen is listed elsewhere. These columns were measured beside it and carry no call. The list favours compounds with an active or inconclusive main result. Potencies come from curve fits of mixed quality, noted in brackets.
# Assay: qHTS Assay to Find Inhibitors of Chronic Active B-Cell Receptor Signaling
# Conditions: ABC-DLBCL IkBa-CBG/CBR reporter, luminescence ratio (green luciferase fused to IkBa over red control in TMD8 lymphoma cells), 4 h
# How it was run: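 Doxycycline induced both beetle luciferases in TMD8 lymphoma cells; IKK-driven degradation limits the IkappaBalpha-fused green signal, while red luminescence normalises for cell number and nonspecific effects. Compounds tested up to 46 uM, 4 hrs.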
# [1] = measured here: CBR red luminescence, cell number
# [2] = measured here: IkBa-CBG green luminescence
SMILES,AC50 [1],AC50 [2]
Cc1cc(-c2ccccc2)c(C#N)c(=S)[nH]1,"0.0146 µM [rising, full curve, poor fit]",
COc1ccccc1CNC(=O)c1n[nH]c2ccccc12,"35.5 µM [falling, partial curve, poor fit]",
O=C(CN1C(=O)S/C(=C/c2cccn2-c2ccc(O)cc2)C1=O)N1CCCC1,"12.6 µM [rising, single point]",
COC(=O)C1C(c2ccccc2)C(C(=O)O)C1c1ccccc1 (stereo unspecified),"28.2 µM [rising, single point]",
CN(C)C(=O)CSc1nnc([C@H](Cc2c[nH]c3ccccc23)NC(=O)OC(C)(C)C)o1,"2.82 µM [rising, full curve, poor fit]",
Nc1ccc(C(=O)Nc2ccccc2N)cc1,,"11.2 µM [falling, partial curve]"
CCCCCC(=O)NC(=S)Nc1cccc(-c2nc3ncccc3o2)c1,"12.6 µM [rising, partial curve, poor fit]",
COc1ccc(-c2nc(-c3ccccc3)c(-c3cc([N+](=O)[O-])ccc3C)[nH]2)cc1OC,"29.1 µM [rising, single point]",
O=C(OCCOc1ccc(Br)cc1)c1cnccn1,"3.66 µM [falling, single point]",
O=C(Nc1nnc(Cc2ccccc2)s1)c1ccco1,"18.4 µM [falling, single point]","25.9 µM [rising, partial curve, poor fit]"
COc1cccc(NC(=O)CN(C)C(=O)CNC(=O)c2ccc(Oc3ccccc3)cc2)c1,"23.1 µM [falling, single point]",
CSc1nc2c(C)c(C)c(C)c(C)c2[nH]1,"35.5 µM [rising, single point]",
COc1cccc(-c2c(C(=O)N/N=C/c3cccs3)nnn2-c2nonc2N)c1,"35.5 µM [falling, single point]",
Clc1ccc(C2=NN=C3COc4ccccc4N3C2)cc1,"0.13 µM [falling, full curve, poor fit]",
Cc1cnc(=O)[nH]c1SCC(=O)Nc1cc(C(F)(F)F)ccc1Cl,"39.8 µM [rising, partial curve, poor fit]",
CN1CCN(c2nc(Nc3cccc(C(F)(F)F)c3)nc(N3CCOCC3)n2)CC1,"1.46 µM [rising, partial curve, poor fit]",
C/C(=N\NC(=S)NCc1ccccc1)c1ccc(C(C)(C)C)cc1,"20.6 µM [rising, single point]",
O=C(NC(Cc1c[nH]c2ccccc12)C(=O)Nc1ccc(F)c([N+](=O)[O-])c1)c1cccs1 (stereo unspecified),"8.2 µM [falling, partial curve]",
CCN(CC)C(=O)c1ccc2c(c1)nnn2C,"1.64 µM [rising, partial curve, poor fit]",
COc1cc2cc(C(=O)N3CCc4ccccc4C3)[nH]c2cc1OC,"1.12 µM [rising, full curve]",
Cc1ccc(NC(=O)CSc2nnc(CNC(=O)c3cccs3)o2)cc1,"14.1 µM [rising, single point]",

# Full records as entered above:
# COc1cccc(NC(=O)CN(C)C(=O)CNC(=O)c2ccc(Oc3ccccc3)cc2)c1 as listed: AC50 [1]: 23.1 µM [falling, single point]
# Clc1ccc(C2=NN=C3COc4ccccc4N3C2)cc1 as listed: AC50 [1]: 0.13 µM [falling, full curve, poor fit]
# CSc1nc2c(C)c(C)c(C)c(C)c2[nH]1 as listed: AC50 [1]: 35.5 µM [rising, single point]

# Next entries follow.

SMILES,AC50 [1],AC50 [2]
OCCC1CN(Cc2nc3c(s2)CCCC3)CCN1CCc1ccccc1 (stereo unspecified),"6.31 µM [rising, single point]",
Cc1ccc(OCC(=O)N2CCc3ccccc3C2)c(Br)c1,"7.08 µM [rising, partial curve]",
CC(=O)N1CCc2cc(S(=O)(=O)NC(CC(C)C)C(=O)Nc3cc(C)ccn3)ccc21 (stereo unspecified),"32.6 µM [rising, single point]",
Cc1cc(SCC(=O)c2cccs2)nc2c(C)cccc12,"2.51 µM [rising, full curve, poor fit]",
Cc1ccc(N2C(=O)CS/C2=N\C(=S)Nc2ccccc2)cc1,"2.24 µM [falling, full curve, poor fit]","3.16 µM [falling, single point]"
COc1c(OC)c(O)c2c(=O)c(O)c(-c3ccccc3)oc2c1OC,"22.4 µM [falling, partial curve, poor fit]",
Cc1cccc(C)c1OCc1cc(C(=O)NCC2CC2)no1,"35.5 µM [rising, single point]",
COc1cc(C(=O)NCc2ccco2)c(Br)c(OC)c1OC,"28.2 µM [falling, single point]",
CCOC(=O)N1CCN(CC(O)c2c[nH]c3ccccc23)CC1 (stereo unspecified),"35.5 µM [falling, partial curve, poor fit]",
CN(C)c1ccc(NC(=O)c2cccc(N3C(=O)CCC3=O)c2)cc1,"8.91 µM [falling, partial curve]",
COc1cc(/C=C2\N=C(c3ccccc3)NNC2=O)cc(OC)c1OC,"12.6 µM [rising, partial curve]","11.2 µM [falling, partial curve]"
NNC(=O)c1sc(-c2ccccc2)cc1N,"7.94 µM [rising, partial curve]",
COCCNC(=O)COC(=O)/C=C/c1cnc2ccccc2n1,"35.5 µM [falling, single point]",
COC(=O)c1cc(CSc2ncnc3sccc23)oc1C,"35.5 µM [falling, partial curve, poor fit]",
COc1ccc(OC)c(Nc2nc(-c3sc(C)nc3C)cs2)c1,"14.1 µM [falling, single point]",
O=C(Nc1ccc(Cl)cc1Cl)NC1CCCC1,"0.251 µM [rising, full curve, poor fit]",
Cc1ccc(-c2csc3ncnc(-n4nnc5ccccc54)c23)cc1,"18.4 µM [rising, partial curve, poor fit]","23.1 µM [falling, single point]"
CCNc1nc(-c2ccc(Cl)cc2)cs1,"1.12 µM [rising, full curve, poor fit]",
COc1ccc(/C=C/C(=O)c2ccncc2)c2ccccc12,"29.1 µM [rising, single point]","20.6 µM [falling, single point]"
C=CCN(c1ccccc1)S(=O)(=O)c1ccc(Cl)c(C(=O)OCC(=O)NCCCN2CCCC2=O)c1,"11.2 µM [falling, single point]",
